Reference: PMC3393671
No constants are given. Whether binding was seen depends on the method and setting. Some results given as binding are weak or reduced against the parent protein; the word gives no strength. Tags and fused reporters may be left off the sequences shown.

Columns and labels:
[1] = molecular target: T1, Irga6 (GST tag cleaved off) (mouse) (UniProt Q9QZ85); test: dynamic light scattering; GTP-dependent oligomerization of Irga6 with ROP5BIII; unpublished data
T1 sequence: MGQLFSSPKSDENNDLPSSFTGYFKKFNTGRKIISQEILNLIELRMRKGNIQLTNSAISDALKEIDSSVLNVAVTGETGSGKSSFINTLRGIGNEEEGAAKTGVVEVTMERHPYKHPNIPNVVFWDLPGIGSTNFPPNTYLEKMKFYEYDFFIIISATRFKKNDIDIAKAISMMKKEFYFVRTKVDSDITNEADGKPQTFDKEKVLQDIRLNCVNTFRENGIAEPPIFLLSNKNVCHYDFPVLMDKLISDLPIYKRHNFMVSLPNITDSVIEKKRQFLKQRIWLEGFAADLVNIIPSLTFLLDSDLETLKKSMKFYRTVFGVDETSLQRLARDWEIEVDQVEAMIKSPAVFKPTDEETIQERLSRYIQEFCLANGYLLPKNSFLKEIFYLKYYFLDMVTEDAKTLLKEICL

[2] = molecular target: T1, Irga6 (GST tag cleaved off) (mouse); test: dynamic light scattering; GTP-dependent oligomerization of 20 µM purified Irga6 with 10 mM GTP, without or with 20 or 80 µM ROP5BI pseudokinase domain; GST as inert control; both purified

B1: Irga6 (GST tag cleaved off) (protein, UniProt Q9QZ85 1-411)
chain: MGQLFSSPKSDENNDLPSSFTGYFKKFNTGRKIISQEILNLIELRMRKGNIQLTNSAISDALKEIDSSVLNVAVTGETGSGKSSFINTLRGIGNEEEGAAKTGVVEVTMERHPYKHPNIPNVVFWDLPGIGSTNFPPNTYLEKMKFYEYDFFIIISATRFKKNDIDIAKAISMMKKEFYFVRTKVDSDITNEADGKPQTFDKEKVLQDIRLNCVNTFRENGIAEPPIFLLSNKNVCHYDFPVLMDKLISDLPIYKRHNFMVSLPNITDSVIEKKRQFLKQRIWLEGFAADLVNIIPSLTFLLDSDLETLKKSMKFYRTVFGVDETSLQRLARDWEIEVDQVEAMIKSPAVFKPTDEETIQERLSRYIQEFCLANGYLLPKNSFLKEIFYLKYYFLDMVTEDAKTLLKEICL
binding [1]: binds | binding [2]: binds
